Assay results reported in the supplement of paper PMC12823440, “Inhibitors supercharge kinase turnover through native proteolytic circuits” (Nature, 2025).
Structures can show the parent of a compound that is named as a salt. This is one part of the list. Hit calls seldom repeat between salt and free forms of one compound.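 Kinases were expressed as nanoluciferase fusions in K562 cells and luminescence was read every 4 h between 2 and 18 h as percent of control, DMSO set to 100% and a positive control to 0%. A time point counts as decreased when the signal drops significantly (2 sigma). The hit call is the authors' own, does not follow from the count of time points alone, and its rule is not shown.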

Sequences of proteins named here, by UniProt entry; tags and fusion partners are left off. A change or cut given only in a name is not applied to a line headed by its entry.
UniProt Q05397, whole entry, looked up: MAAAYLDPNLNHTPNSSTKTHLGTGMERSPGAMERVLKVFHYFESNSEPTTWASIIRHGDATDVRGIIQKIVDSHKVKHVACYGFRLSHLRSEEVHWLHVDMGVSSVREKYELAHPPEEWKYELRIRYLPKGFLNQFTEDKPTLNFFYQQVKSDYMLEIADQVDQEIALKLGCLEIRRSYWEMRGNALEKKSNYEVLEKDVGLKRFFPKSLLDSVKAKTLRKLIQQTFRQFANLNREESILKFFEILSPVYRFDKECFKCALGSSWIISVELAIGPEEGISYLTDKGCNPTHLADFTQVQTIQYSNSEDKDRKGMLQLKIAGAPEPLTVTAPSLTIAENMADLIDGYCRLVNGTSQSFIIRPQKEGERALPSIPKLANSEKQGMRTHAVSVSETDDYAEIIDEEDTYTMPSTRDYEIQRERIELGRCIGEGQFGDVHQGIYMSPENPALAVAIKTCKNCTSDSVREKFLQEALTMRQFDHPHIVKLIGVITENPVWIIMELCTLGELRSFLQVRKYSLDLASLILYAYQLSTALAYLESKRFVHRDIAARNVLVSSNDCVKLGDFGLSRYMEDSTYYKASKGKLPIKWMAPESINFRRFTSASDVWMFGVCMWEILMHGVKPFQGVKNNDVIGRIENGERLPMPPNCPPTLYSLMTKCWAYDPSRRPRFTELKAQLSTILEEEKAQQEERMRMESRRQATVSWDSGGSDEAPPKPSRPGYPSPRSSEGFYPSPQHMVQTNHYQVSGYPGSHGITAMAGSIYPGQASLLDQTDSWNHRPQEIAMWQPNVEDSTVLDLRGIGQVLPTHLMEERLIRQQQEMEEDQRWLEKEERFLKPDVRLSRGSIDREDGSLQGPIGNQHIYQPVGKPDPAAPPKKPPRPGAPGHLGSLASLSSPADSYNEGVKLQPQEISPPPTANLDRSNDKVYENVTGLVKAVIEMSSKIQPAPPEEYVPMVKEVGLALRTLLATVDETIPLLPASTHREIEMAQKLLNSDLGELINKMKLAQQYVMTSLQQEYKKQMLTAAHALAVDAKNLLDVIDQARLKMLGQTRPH
UniProt Q14289, whole entry, looked up: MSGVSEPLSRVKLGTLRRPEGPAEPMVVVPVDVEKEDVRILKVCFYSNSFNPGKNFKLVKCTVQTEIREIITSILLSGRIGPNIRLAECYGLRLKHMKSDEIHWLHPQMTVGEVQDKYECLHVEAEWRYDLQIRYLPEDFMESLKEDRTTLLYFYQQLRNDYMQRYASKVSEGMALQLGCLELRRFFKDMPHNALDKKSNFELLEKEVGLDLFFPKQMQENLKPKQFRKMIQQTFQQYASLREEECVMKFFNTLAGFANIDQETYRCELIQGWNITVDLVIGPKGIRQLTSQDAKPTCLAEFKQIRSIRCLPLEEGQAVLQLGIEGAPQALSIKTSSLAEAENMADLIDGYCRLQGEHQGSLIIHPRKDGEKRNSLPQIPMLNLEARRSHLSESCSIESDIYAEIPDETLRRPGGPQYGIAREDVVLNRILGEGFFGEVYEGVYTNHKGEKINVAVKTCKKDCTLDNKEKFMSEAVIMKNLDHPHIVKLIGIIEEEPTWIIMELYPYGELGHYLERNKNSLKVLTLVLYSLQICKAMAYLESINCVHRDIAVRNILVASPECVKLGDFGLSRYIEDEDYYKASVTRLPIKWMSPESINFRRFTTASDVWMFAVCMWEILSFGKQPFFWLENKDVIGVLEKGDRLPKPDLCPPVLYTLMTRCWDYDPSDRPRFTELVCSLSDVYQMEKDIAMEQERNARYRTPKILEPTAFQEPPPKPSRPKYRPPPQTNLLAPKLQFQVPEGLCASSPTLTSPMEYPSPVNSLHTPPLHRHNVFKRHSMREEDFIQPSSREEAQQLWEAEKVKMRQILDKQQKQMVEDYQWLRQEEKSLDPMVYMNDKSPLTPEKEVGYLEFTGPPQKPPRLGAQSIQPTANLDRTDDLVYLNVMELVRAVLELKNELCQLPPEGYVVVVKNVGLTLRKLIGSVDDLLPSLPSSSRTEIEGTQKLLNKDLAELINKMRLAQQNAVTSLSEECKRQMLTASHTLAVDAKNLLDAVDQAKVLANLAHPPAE
UniProt P07949, whole entry, looked up: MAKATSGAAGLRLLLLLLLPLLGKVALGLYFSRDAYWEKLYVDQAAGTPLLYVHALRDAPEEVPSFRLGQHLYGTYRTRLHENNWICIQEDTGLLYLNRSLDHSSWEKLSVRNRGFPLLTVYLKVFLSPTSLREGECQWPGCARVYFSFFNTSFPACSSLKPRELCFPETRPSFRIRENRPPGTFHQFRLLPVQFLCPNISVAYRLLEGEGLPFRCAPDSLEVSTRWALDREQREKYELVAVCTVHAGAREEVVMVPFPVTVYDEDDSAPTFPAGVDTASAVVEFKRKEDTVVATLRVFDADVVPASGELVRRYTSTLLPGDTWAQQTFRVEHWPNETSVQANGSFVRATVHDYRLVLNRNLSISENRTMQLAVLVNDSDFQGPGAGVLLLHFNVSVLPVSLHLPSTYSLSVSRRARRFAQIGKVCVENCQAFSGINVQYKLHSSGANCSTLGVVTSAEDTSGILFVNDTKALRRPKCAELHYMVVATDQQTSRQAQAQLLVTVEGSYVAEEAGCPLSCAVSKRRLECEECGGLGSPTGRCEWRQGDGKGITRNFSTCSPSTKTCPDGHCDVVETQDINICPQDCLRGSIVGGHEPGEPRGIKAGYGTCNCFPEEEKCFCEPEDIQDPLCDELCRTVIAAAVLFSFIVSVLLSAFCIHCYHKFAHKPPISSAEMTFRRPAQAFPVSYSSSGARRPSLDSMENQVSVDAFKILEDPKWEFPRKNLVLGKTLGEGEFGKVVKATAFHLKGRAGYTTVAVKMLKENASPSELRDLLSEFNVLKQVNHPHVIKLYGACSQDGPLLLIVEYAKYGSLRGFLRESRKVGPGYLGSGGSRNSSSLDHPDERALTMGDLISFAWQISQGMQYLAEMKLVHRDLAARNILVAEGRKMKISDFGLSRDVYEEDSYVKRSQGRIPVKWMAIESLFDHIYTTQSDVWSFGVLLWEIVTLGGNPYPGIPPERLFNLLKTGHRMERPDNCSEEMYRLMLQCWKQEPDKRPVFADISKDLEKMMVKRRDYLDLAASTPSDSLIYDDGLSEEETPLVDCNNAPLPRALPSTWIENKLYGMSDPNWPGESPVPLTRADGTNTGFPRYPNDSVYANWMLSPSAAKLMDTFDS
UniProt P07949, whole entry M918T, looked up: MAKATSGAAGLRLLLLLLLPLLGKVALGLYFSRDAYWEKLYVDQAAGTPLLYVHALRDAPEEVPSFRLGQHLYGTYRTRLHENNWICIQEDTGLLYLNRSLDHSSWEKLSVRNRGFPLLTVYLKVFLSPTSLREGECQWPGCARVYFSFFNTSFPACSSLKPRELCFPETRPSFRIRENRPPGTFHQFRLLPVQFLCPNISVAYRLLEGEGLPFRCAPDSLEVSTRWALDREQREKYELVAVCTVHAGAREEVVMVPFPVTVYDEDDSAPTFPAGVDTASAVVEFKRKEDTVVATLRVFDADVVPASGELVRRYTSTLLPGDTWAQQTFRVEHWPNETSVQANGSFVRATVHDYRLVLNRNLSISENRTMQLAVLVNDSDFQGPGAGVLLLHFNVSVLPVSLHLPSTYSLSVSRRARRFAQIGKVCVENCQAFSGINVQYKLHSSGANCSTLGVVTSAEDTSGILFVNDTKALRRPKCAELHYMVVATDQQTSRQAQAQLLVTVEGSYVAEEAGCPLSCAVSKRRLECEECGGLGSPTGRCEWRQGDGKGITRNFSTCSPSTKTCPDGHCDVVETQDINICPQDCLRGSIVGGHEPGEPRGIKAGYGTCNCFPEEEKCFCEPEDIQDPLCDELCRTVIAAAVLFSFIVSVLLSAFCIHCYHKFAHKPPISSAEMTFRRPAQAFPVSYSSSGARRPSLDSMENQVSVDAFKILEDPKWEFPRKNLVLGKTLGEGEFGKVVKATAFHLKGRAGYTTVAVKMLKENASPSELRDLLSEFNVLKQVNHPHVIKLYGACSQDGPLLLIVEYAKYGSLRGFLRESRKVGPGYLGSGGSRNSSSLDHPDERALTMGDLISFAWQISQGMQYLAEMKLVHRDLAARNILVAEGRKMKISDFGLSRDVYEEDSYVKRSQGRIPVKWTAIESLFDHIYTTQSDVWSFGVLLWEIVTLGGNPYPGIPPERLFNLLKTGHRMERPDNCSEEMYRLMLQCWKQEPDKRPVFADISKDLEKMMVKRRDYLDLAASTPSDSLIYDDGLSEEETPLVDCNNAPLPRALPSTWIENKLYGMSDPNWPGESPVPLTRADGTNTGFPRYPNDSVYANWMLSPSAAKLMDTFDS
UniProt Q9BRS2: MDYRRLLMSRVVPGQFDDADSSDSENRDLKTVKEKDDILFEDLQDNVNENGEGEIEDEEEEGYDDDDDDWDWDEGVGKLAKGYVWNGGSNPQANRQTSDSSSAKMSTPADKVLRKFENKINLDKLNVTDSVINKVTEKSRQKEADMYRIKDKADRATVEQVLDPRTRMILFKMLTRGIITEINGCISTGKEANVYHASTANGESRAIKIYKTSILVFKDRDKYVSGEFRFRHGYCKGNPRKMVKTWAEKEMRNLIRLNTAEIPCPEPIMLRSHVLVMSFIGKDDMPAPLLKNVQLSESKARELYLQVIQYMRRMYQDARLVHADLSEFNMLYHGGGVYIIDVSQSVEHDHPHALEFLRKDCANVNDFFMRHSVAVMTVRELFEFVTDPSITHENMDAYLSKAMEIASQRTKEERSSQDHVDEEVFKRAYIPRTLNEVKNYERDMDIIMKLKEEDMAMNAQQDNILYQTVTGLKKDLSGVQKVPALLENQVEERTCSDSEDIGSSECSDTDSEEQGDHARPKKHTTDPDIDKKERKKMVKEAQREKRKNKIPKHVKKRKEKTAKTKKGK
UniProt Q13546: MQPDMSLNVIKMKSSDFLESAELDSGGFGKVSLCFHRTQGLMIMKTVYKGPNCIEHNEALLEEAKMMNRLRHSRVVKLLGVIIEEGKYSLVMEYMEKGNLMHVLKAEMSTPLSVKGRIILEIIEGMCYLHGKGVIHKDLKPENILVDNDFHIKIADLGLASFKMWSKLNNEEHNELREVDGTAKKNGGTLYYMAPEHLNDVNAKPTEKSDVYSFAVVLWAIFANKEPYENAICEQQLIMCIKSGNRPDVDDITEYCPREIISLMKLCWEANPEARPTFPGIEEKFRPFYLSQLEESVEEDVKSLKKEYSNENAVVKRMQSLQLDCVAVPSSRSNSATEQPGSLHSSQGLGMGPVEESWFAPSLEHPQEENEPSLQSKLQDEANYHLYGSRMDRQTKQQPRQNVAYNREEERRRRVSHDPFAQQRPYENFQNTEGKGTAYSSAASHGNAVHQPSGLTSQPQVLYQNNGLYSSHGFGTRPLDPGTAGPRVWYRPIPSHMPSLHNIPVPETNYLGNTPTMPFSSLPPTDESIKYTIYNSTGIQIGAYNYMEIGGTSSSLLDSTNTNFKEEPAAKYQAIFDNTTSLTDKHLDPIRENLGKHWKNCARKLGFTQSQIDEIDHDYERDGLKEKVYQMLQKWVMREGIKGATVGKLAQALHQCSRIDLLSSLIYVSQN

Key:
Experiment in all cases: number of time points (of 5) at which kinase-Nluc abundance scored as decreased, DMSO-normalised (count); higher = more persistent destabilization
Conditions in all cases: K562; 2-18 h
PRKCA = PRKCA (UniProt P17252)
PTK2 = PTK2 (UniProt Q05397)
PTK2B = PTK2B (UniProt Q14289)
RAF1 = RAF1 (UniProt P04049)
[1] = molecular target: RAF1_S257L (clone: RAF1_mut) (UniProt P04049)
RET = RET (UniProt P07949)
[2] = molecular target: RET_M918T (clone: RET_mut) (UniProt P07949)
RIOK1 = RIOK1 (UniProt Q9BRS2)
RIPK1 = RIPK1 (UniProt Q13546)
RIPK2 = RIPK2 (UniProt O43353)

Row | SMILES | number of time points (PRKCA) | number of time points (PTK2) | number of time points (PTK2B) | number of time points (RAF1) | number of time points [1] | number of time points (RET) | number of time points [2] | number of time points (RIOK1) | number of time points (RIPK1) | number of time points (RIPK2)
1 | Cn1cc(-c2cn3nccc3c(-c3cnn([C@]4(CC#N)C[C@@H](C#N)C4)c3)n2)cn1 (10 µM) | 0 | 0 | 0 | 0 | 0 | 0 | 0 | 0 | 0 | 0
2 | COC(=O)c1cc2c(OC(C)C)cc(OC(C)C)cc2[nH]1 (2.5 µM) | 0 | 0 | 0 | 0 | 0 | 0 | 0 | 0 | 0 | 0
3 | CCn1c2ccccc2c2cc(Nc3ccnc(NCCCN4CCOCC4)n3)ccc21 (2.5 µM) | 0 | 0 | 0 | 0 | 0 | 0 | 0 | 0 | 0 | 0
4 | CC(C)(C)c1ccc(C(=O)Nc2cn3cc(-n4ccnc4)ccc3n2)cc1 (10 µM) | 0 | 0 | 0 | 0 | 0 | 0 | 0 | 0 | 0 | 0
5 | CC(C)=C/C=C1\O[C@@H]2CC(C)=CC(=O)[C@@H]2[C@]1(C)O [Bisabolangelone] (10 µM) | 0 | 0 | 0 | 0 | 0 | 0 | 0 | 0 | 0 | 0
6 | C=C[C@H]1[C@H](O[C@@H]2O[C@H](CO)[C@@H](O)[C@H](O)[C@H]2O)OC=C(C(=O)OC)[C@H]1CCOC(=O)c1cc(O)c(O)c(O)c1 [Cornuside] (10 µM) | 0 | 0 | 0 | 0 | 0 | 0 | 0 | 0 | 0 | 0
7 | O=C(CC(c1ccccc1)C(C(=O)O)C(=O)O)c1ccc(C(F)(F)F)cc1 (stereo not given) (10 µM) | 0 | 0 | 0 | 0 | 0 | 0 | 0 | 0 | 0 | 0
8 | Cc1cc(Nc2ncc(Cl)c(Nc3ccccc3S(=O)(=O)C(C)C)n2)c(OC(C)C)cc1C1CCN(CC(=O)NCCNc2cccc3c2C(=O)N(C2CCC(=O)NC2=O)C3=O)CC1 (stereo not given) (10 µM) | 0 | 5 | 0 | 0 | 0 | 0 | 0 | 0 | 0 | 0
9 | C[C@@H]1O[C@@H](O[C@H]2[C@H](OC(=O)[C@]34CCC(C)(C)C[C@H]3C3=CC[C@@H]5[C@@]6(C)C[C@H](O)[C@H](O[C@@H]7O[C@H](CO)[C@@H](O)[C@H](O)[C@H]7O)C(CO)(CO)[C@@H]6CC[C@@]5(C)[C@]3(C)C[C@H]4O)OC[C@H](O)[C@@H]2O)[C@H](O)[C@H](O)[C@H]1O[C@@H]1OC[C@@H](O)[C@H](O[C@@H]2OC[C@](O)(CO)[C@H]2O)[C@H]1O [Platycodin D] (10 µM) | 0 | 0 | 0 | 0 | 0 | 0 | 0 | 3 | 0 | 0
10 | COc1ccc(S(=O)(=O)N(CCO)c2ccccc2CN(C)CC=Cc2ccc(Cl)cc2)cc1 (2.5 µM) | 0 | 0 | 0 | 0 | 0 | 0 | 0 | 0 | 0 | 0
11 | C=CC(=O)Nc1cccc(Oc2nc(Nc3ccc(N4CCN(C)CC4)cc3)ncc2Cl)c1 (2.5 µM) | 0 | 0 | 0 | 0 | 0 | 0 | 0 | 0 | 0 | 0
12 | Nc1n[nH]c(N)c1N=Nc1ccc(O)cc1 (10 µM) | 0 | 0 | 0 | 0 | 0 | 0 | 0 | 0 | 0 | 0
13 | COc1cc(/C=C/c2ccc(NC(=O)/C=C/c3cc(OC)c(OC)c(OC)c3)cc2)cc(OC)c1 (2.5 µM) | 0 | 0 | 0 | 0 | 0 | 0 | 0 | 0 | 0 | 0
14 | Cc1cc([N+](=O)[O-])c(NS(=O)(=O)c2cccc(C(=O)O)c2)cc1-c1cccnc1 [Alofanib] (10 µM) | 0 | 0 | 0 | 0 | 0 | 0 | 0 | 0 | 0 | 0
15 | O=S(=O)(c1cccc2c(Cl)cccc12)N1CCCNCC1 (10 µM) | 0 | 0 | 0 | 0 | 0 | 0 | 0 | 0 | 0 | 0
16 | CC(C)n1nc(C#Cc2ccccc2)c2c(N)ncnc21 (10 µM) | 0 | 3 | 0 | 4 | 2 | 0 | 0 | 0 | 4 | 3
17 | Cc1cc(/C=C2\CC/C(=C\c3cc(C)c(O)c(C)c3)C2=O)cc(C)c1O [Pentagamavunon-1] (2.5 µM) | 0 | 0 | 0 | 0 | 0 | 0 | 0 | 0 | 0 | 0
18 | Cc1nc(Nc2ncc(C(=O)Nc3c(C)cccc3Cl)s2)cc(N2CCN(C(=O)CCCCCCC(=O)N[C@H](C(=O)N3C[C@H](O)C[C@H]3C(=O)NCc3ccc(-c4scnc4C)cc3)C(C)(C)C)CC2)n1 (2.5 µM) | 1 | 2 | 1 | 3 | 3 | 2 | 0 | 2 | 3 | 4

Random excerpt: two records from the list, in no set order.
Row | SMILES | number of time points (PRKCA) | number of time points (PTK2) | number of time points (PTK2B) | number of time points (RAF1) | number of time points [1] | number of time points (RET) | number of time points [2] | number of time points (RIOK1) | number of time points (RIPK1) | number of time points (RIPK2)
2 | COC(=O)c1cc2c(OC(C)C)cc(OC(C)C)cc2[nH]1 (2.5 µM) | 0 | 0 | 0 | 0 | 0 | 0 | 0 | 0 | 0 | 0
1 | Cn1cc(-c2cn3nccc3c(-c3cnn([C@]4(CC#N)C[C@@H](C#N)C4)c3)n2)cn1 (10 µM) | 0 | 0 | 0 | 0 | 0 | 0 | 0 | 0 | 0 | 0

(list continues)

Row | SMILES | number of time points (PRKCA) | number of time points (PTK2) | number of time points (PTK2B) | number of time points (RAF1) | number of time points [1] | number of time points (RET) | number of time points [2] | number of time points (RIOK1) | number of time points (RIPK1) | number of time points (RIPK2)
19 | CCOC(=O)C1=C[C@]2(CC)CCCN3CCc4c(n1c1ccccc41)[C@@H]32 [Vinpocetine] (10 µM) | 0 | 0 | 0 | 0 | 0 | 0 | 0 | 0 | 0 | 0
20 | O=C1c2cccc(O)c2C(=O)c2c(O)cccc21 [Danthron] (10 µM) | 0 | 0 | 0 | 0 | 0 | 0 | 0 | 0 | 0 | 0
21 | CC(C)c1cnn2c(NCc3ccccc3)cc(NCCCCCCN)nc12 [BS-181 (hydrochloride)] (10 µM) | 0 | 0 | 0 | 0 | 0 | 0 | 0 | 0 | 0 | 0
22 | COc1ccc(COc2cc3oc(=O)c4cc(C(C)O)ccc4c3cc2OC)cc1 (stereo not given) [Palomid 529] (2.5 µM) | 0 | 0 | 0 | 0 | 0 | 0 | 0 | 0 | 0 | 0
23 | CC(C)Cn1cc(C#N)c2cc(Oc3ccc(NC(=O)[C@@H]4CCCN4)cc3)ccc21 (10 µM) | 0 | 0 | 0 | 0 | 0 | 0 | 0 | 0 | 0 | 0
24 | C[C@@H]1CN(CC(=O)Nc2ccc3c(c2)Cc2cccc(-c4cc(=O)cc(N5CCOCC5)o4)c2S3)C[C@H](C)O1 (2.5 µM) | 0 | 0 | 0 | 0 | 0 | 0 | 0 | 0 | 0 | 0
25 | CCOc1cc(C(=O)N2CCC(N3CCN(C)CC3)CC2)ccc1Nc1ncc2c(n1)N(S(C)(=O)=O)c1ccccc1C(=O)N2C (10 µM) | 0 | 0 | 0 | 0 | 0 | 0 | 0 | 0 | 0 | 0
26 | COc1ccc2c(c1)C[C@H](C(=O)Nc1ccc(-c3cn[nH]c3)cc1OCCN(C)C)CO2 [Chroman 1] (10 µM) | 0 | 0 | 0 | 0 | 0 | 0 | 0 | 0 | 0 | 0
27 | COc1ccc(F)cc1C(=O)NCc1ccc(-c2nn([C@@H](C)C(F)(F)F)c(N)c2C(N)=O)cc1 [Pirtobrutinib] (10 µM) | 0 | 0 | 0 | 0 | 0 | 0 | 0 | 0 | 0 | 0
28 | Cn1c(=O)c(Oc2ccc(F)cc2F)cc2cnc(NC(CCO)CCO)nc21 [Pamapimod] (10 µM) | 0 | 0 | 0 | 0 | 0 | 0 | 0 | 0 | 0 | 0
29 | C=CC(=O)Nc1cccc(Oc2nc(Nc3ccc(N4CCN(C)CC4)cc3)nc3ccsc23)c1 [Olmutinib] (2.5 µM) | 0 | 0 | 0 | 0 | 0 | 0 | 0 | 0 | 0 | 0
30 | O=C(Nc1ncc(SCCN2CCCC2)s1)[C@]1(c2ccc(S(=O)(=O)C3CC3)cc2)C[C@H]1C1CCCCC1 [Globalagliatin] (2.5 µM) | 0 | 0 | 0 | 0 | 0 | 0 | 0 | 0 | 0 | 0
31 | CC(C)n1cnnc1-c1cccc(NC(=O)c2cc3ccc(F)cc3[nH]2)n1 (2.5 µM) | 0 | 2 | 0 | 3 | 4 | 3 | 3 | 3 | 3 | 4
32 | O=c1cc(-c2ccc(O)cc2)oc2cc(O)c([C@@H]3O[C@H](CO)[C@@H](O)[C@H](O)[C@H]3O)c(O)c12 [Isovitexin] (10 µM) | 0 | 0 | 0 | 0 | 0 | 0 | 0 | 0 | 0 | 0
33 | C1=N/C2=N/c3ccc(OCCN4CCCC4)c(c3)COC/C=C/COCc3cccc(c3)C(=C1)N2 [Pacritinib] (2.5 µM) | 0 | 1 | 0 | 0 | 0 | 0 | 0 | 0 | 0 | 0
34 | O=C(Nc1cc(Cl)cc(Cl)c1)Nc1cc(Cl)cc(Cl)c1 (10 µM) | 0 | 0 | 0 | 0 | 0 | 0 | 0 | 0 | 0 | 0
35 | CNC(=O)c1c(C)oc2cc(Oc3ncnc4cc(OC)c(OC)cc34)ccc12 [Fruquintinib] (10 µM) | 0 | 0 | 0 | 0 | 0 | 0 | 0 | 0 | 0 | 0
